Experimental data as given in the supplement of paper PMC6411743.
± gives the standard deviation of the averaged measurements. This is a selection; strong and weak results do not stand in their true shares.

Protein sequences, listed by entry. Tags and fused reporters are not part of them. Lines headed by an entry give the natural chain unless they say otherwise; changes in a name come on top.
UniProt Q6UN15: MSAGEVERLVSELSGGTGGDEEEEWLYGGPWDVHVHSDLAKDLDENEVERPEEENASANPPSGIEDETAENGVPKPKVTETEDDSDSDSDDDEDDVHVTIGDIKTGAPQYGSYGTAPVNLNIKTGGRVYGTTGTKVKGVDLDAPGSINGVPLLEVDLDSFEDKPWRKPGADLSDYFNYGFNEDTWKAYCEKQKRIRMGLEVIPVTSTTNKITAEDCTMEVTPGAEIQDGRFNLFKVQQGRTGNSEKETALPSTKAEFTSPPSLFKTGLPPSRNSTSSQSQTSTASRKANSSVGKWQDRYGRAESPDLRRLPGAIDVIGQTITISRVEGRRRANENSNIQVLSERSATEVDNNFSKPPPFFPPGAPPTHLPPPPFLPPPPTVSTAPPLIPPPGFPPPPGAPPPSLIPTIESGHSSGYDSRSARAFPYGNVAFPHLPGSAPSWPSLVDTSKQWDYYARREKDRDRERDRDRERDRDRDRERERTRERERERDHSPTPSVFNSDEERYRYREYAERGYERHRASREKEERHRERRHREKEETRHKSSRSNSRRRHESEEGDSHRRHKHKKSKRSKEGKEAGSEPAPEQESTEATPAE
UniProt Q6NUK4: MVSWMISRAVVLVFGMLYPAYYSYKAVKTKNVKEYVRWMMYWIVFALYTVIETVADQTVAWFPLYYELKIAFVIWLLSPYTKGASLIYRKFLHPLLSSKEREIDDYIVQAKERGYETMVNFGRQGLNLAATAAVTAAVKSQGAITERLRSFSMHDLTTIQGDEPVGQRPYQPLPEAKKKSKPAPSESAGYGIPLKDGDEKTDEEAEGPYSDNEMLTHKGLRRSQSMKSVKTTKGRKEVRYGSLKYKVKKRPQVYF
UniProt Q7L9L4: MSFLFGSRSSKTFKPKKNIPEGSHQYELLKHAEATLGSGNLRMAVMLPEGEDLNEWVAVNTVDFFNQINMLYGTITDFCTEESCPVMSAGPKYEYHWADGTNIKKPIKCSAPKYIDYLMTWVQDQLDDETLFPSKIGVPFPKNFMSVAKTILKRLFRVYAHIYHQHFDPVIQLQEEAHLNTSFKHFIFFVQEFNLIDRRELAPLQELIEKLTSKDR
UniProt Q71F23: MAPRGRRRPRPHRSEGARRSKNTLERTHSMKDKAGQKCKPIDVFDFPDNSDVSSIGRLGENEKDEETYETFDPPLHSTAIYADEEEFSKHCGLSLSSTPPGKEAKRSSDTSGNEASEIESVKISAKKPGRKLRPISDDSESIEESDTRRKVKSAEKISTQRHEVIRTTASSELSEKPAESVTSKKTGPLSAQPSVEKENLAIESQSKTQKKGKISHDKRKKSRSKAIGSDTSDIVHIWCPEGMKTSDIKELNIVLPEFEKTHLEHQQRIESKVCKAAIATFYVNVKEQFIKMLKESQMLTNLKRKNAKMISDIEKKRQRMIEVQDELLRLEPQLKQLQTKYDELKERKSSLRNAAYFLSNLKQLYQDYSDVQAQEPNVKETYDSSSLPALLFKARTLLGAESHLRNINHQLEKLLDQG
UniProt Q6YN16: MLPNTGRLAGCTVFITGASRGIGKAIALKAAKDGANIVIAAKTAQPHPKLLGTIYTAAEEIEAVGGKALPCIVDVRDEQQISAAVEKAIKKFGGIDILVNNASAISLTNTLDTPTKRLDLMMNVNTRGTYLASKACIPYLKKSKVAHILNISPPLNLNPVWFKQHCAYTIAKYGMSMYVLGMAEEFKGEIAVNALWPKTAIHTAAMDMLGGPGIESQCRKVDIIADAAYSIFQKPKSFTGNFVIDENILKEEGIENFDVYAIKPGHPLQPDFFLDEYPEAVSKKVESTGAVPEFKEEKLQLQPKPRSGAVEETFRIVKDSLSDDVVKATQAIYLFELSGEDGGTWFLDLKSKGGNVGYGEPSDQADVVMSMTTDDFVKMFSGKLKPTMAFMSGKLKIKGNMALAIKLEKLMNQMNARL
UniProt Q6IQ22: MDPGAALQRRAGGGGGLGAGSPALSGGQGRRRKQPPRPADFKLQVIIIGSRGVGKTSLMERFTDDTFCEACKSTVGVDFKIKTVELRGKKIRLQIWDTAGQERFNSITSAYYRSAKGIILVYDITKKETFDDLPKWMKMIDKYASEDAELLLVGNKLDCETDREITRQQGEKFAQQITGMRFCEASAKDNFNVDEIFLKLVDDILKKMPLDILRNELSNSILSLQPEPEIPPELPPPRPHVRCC
UniProt Q6FIF0: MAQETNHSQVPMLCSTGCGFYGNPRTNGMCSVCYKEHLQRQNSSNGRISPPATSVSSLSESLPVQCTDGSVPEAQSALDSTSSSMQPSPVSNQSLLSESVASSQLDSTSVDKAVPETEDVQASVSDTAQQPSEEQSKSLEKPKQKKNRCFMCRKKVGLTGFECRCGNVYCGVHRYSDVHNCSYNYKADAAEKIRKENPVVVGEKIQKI
UniProt Q6P179: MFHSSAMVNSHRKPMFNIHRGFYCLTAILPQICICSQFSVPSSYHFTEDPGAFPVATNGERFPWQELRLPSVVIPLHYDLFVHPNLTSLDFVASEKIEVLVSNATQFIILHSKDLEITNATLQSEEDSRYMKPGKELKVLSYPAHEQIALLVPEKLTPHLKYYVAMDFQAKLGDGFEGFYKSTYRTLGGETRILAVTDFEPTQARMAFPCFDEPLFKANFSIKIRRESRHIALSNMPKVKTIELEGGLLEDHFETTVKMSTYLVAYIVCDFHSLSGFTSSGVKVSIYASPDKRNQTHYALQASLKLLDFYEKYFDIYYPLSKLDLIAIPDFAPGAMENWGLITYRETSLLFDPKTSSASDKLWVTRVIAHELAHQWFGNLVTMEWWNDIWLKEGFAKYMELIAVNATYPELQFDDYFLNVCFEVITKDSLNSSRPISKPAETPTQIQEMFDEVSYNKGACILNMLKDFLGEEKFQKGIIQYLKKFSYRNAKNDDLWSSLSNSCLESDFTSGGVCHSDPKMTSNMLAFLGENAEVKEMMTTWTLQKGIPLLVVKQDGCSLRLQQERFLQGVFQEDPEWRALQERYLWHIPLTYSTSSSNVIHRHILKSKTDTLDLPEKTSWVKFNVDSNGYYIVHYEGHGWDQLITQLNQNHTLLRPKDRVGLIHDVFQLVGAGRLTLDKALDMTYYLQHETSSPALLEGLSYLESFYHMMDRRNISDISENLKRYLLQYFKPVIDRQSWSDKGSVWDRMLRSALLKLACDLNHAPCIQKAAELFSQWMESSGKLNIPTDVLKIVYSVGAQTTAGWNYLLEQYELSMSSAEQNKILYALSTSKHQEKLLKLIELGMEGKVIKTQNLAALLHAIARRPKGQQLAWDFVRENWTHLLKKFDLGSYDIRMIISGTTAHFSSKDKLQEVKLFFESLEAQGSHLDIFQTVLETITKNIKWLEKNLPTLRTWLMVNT
UniProt Q7Z3U7: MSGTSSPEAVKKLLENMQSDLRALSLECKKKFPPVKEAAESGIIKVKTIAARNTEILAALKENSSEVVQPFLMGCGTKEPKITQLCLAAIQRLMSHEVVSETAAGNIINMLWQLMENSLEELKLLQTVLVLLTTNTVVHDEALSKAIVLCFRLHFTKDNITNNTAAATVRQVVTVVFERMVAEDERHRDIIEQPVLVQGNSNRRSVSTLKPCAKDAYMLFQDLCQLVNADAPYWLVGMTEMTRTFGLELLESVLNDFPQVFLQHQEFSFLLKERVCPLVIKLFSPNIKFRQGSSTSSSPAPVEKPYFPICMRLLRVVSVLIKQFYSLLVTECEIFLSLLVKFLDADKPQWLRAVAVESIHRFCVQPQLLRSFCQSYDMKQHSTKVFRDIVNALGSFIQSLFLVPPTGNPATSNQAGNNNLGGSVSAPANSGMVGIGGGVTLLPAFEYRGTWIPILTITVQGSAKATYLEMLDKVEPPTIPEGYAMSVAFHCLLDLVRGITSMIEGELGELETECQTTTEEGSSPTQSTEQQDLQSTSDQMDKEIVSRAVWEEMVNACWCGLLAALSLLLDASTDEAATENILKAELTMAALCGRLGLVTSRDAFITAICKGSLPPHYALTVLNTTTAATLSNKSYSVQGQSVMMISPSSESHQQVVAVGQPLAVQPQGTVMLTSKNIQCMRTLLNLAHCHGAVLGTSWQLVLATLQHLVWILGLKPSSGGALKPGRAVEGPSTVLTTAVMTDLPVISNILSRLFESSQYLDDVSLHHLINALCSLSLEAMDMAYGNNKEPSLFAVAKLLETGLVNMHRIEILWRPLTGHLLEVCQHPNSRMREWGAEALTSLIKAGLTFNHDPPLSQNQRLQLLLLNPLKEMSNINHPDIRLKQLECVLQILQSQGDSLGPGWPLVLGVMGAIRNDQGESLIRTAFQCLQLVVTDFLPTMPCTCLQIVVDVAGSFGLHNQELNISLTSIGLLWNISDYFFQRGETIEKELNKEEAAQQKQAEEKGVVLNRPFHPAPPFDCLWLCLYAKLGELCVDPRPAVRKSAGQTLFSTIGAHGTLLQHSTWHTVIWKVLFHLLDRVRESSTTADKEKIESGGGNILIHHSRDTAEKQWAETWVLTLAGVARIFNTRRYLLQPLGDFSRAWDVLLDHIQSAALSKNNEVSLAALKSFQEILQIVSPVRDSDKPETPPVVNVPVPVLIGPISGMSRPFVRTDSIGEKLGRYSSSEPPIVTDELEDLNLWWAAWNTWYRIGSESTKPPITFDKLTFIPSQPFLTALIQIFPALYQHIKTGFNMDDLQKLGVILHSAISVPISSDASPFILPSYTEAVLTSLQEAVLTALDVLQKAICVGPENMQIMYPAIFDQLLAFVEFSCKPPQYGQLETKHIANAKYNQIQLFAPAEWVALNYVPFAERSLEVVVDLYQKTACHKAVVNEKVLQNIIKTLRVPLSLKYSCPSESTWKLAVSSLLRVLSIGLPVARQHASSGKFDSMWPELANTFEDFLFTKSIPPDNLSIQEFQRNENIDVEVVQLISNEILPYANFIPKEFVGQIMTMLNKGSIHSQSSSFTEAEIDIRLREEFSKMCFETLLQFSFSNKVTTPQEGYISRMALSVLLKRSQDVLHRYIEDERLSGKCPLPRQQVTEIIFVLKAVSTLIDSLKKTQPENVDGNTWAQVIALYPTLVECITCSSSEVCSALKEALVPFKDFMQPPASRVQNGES
UniProt Q6IC98: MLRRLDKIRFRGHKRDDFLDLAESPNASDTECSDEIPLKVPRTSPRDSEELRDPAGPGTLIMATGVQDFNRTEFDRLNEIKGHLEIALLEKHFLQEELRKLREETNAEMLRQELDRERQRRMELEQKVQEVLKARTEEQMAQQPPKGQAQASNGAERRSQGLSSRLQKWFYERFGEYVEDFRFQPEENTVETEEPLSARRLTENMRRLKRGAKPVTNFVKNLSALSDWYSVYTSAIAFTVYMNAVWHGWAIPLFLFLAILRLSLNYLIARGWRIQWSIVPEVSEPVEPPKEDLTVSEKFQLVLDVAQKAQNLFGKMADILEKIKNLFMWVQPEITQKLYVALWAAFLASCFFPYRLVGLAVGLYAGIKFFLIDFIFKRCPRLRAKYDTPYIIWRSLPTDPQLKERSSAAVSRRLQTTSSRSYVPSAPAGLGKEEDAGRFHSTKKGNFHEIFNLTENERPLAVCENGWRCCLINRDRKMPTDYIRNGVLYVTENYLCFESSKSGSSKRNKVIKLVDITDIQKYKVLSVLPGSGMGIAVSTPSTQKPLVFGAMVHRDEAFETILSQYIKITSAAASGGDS

Compound: Nc1ncnc2c1ncn2[C@@H]1O[C@H](COP(=O)(O)OP(=O)(O)NP(=O)(O)O)[C@@H](O)[C@H]1O [adenylyl imidodiphosphate]
Test: NP40-soluble protein abundance relative to vehicle (solubility fold change) (ratio); higher = more soluble protein in presence of AMP-PNP
Outline: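 Data come from three independent experiments in which Dounce-homogenised Jurkat crude lysate was treated at eight concentrations from 0.1 to 10 mM. Treatment ran 10 min at room temperature and then 3 min at 37 °C, after which 0.8% NP40 and benzonase were added for 60 min at 4 °C before ultracentrifugation. The supernatant underwent TMT labelling and LC-MS/MS, and vsn-normalised intensities were expressed as fold change against the detergent-processed vehicle in each replicate.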

Row | Target | NP40-soluble protein abundance (concentration: 1mM) | NP40-soluble protein abundance (concentration: 2mM) | NP40-soluble protein abundance (concentration: 4mM) | NP40-soluble protein abundance (concentration: 6mM) | NP40-soluble protein abundance (concentration: 8mM) | NP40-soluble protein abundance (concentration: 10mM)
1 | UniProt Q7KZ85 and related entries | 0.985 ± 0.03 | 0.931 ± 0.048 | 0.9691 ± 0.0085 | 0.9679 ± 0.0051 | 0.977 ± 0.013 | 0.971 ± 0.0087
2 | UniProt Q659A1 | 1.03 ± 0.039 | 1.04 ± 0.043 | 1.04 ± 0.044 | 1.03 ± 0.011 | 1.03 ± 0.034 | 1.06 ± 0.087
3 | UniProt Q6RI45 and related entries | 0.999 ± 0.016 | 0.9969 ± 0.0018 | 0.986 ± 0.016 | 0.9818 ± 0.0045 | 1 ± 0.043 | 1 ± 0.022
4 | UniProt Q6P2C8 and related entries | 0.979 ± 0.028 | 0.943 ± 0.013 | 1 ± 0.094 | 1.05 ± 0.052 | 1.04 ± 0.067 | 1.07 ± 0.088
5 | UniProt Q6UN15 and related entries | 1.03 ± 0.024 | 1.11 ± 0.062 | 1.059 ± 0.0078 | 1.07 ± 0.053 | 1.08 ± 0.034 | 1.15 ± 0.064
6 | REEP3 (UniProt Q6NUK4) | 1.01 ± 0.039 | 1.01 ± 0.022 | 1.02 ± 0.028 | 1.02 ± 0.029 | 1.04 ± 0.017 | 1.01 ± 0.012
7 | UniProt Q71SY5 and related entries | 0.966 ± 0.019 | 0.914 ± 0.14 | 0.995 ± 0.021 | 1.03 ± 0.012 | 1.04 ± 0.041 | 1.05 ± 0.013
8 | PGM2L1 (UniProt Q6PCE3) | 0.953 ± 0.037 | 0.931 ± 0.041 | 0.9821 ± 0.0089 | 0.989 ± 0.057 | 1.02 ± 0.012 | 0.978 ± 0.011
9 | UniProt Q7Z3D6-2 | 1.04 ± 0.017 | 1.04 ± 0.027 | 1.03 ± 0.03 | 0.999 ± 0.023 | 1.01 ± 0.024 | 1.01 ± 0.031
10 | UniProt Q7Z3J2 and related entries | 0.9593 ± 0.0078 | 0.944 ± 0.023 | 0.974 ± 0.026 | 0.9327 ± 0.0059 | 0.935 ± 0.031 | 0.958 ± 0.053
11 | UniProt Q6IA86 and related entries | 0.947 ± 0.047 | 0.879 ± 0.1 | 0.963 ± 0.043 | 0.942 ± 0.035 | 0.996 ± 0.042 | 0.931 ± 0.051
12 | TTC21B (UniProt Q7Z4L5) | 0.973 ± 0.013 | 0.975 ± 0.026 | 0.97282 ± 0.00079 | 0.983 ± 0.035 | 1 ± 0.013 | 0.99 ± 0.034
13 | UniProt Q7L9L4 | 1.02 ± 0.043 | 0.899 ± 0.028 | 1.02 ± 0.061 | 0.997 ± 0.092 | 1.05 ± 0.13 | 0.992 ± 0.08
14 | UniProt Q6V1X1 and related entries | 0.915 ± 0.044 | 0.87 ± 0.079 | 0.88 ± 0.016 | 0.887 ± 0.022 | 0.8901 ± 0.0078 | 0.844 ± 0.033
15 | HEATR6 (UniProt Q6AI08) | 0.993 ± 0.037 | 0.996 ± 0.052 | 1 ± 0.06 | 0.974 ± 0.05 | 0.983 ± 0.049 | 0.967 ± 0.04
16 | CHMP1B (UniProt Q7LBR1) | 0.961 ± 0.034 | 1.11 ± 0.23 | 1.03 ± 0.091 | 1.13 ± 0.17 | 1.11 ± 0.13 | 1.17 ± 0.18
17 | UniProt Q71F23 | 1.05 ± 0.028 | 1.07 ± 0.034 | 1.03 ± 0.016 | 1.02 ± 0.039 | 1.07 ± 0.013 | 1.08 ± 0.0087

Row | Target | NP40-soluble protein abundance (concentration: 1mM) | NP40-soluble protein abundance (concentration: 2mM) | NP40-soluble protein abundance (concentration: 4mM) | NP40-soluble protein abundance (concentration: 6mM) | NP40-soluble protein abundance (concentration: 8mM) | NP40-soluble protein abundance (concentration: 10mM)
18 | HSDL2 (UniProt Q6YN16) | 0.998 ± 0.019 | 1.02 ± 0.029 | 1.016 ± 0.0087 | 1.019 ± 0.0086 | 1 ± 0.035 | 1.05 ± 0.013
19 | RAB12 (UniProt Q6IQ22) | 0.994 ± 0.056 | 0.959 ± 0.056 | 0.988 ± 0.068 | 0.967 ± 0.024 | 0.99 ± 0.077 | 1 ± 0.057
20 | FAM91A1 (UniProt Q658Y4) | 0.958 ± 0.033 | 0.915 ± 0.068 | 0.961 ± 0.031 | 0.99 ± 0.041 | 1.01 ± 0.034 | 0.975 ± 0.054
21 | NUDT18 (UniProt Q6ZVK8) | 0.968 ± 0.017 | 0.966 ± 0.033 | 0.96 ± 0.014 | 0.986 ± 0.025 | 0.999 ± 0.037 | 0.98 ± 0.022
22 | UniProt Q6FIF0 and related entries | 0.9913 ± 0.0097 | 1.04 ± 0.086 | 1.01 ± 0.033 | 1.01 ± 0.011 | 1.02 ± 0.024 | 1.01 ± 0.029
23 | TAF2 (UniProt Q6P1X5) | 0.9983 ± 0.005 | 0.991 ± 0.018 | 0.9863 ± 0.0071 | 1 ± 0.044 | 1.01 ± 0.04 | 0.992 ± 0.076
24 | ERAP2 (UniProt Q6P179) | 0.976 ± 0.03 | 1.01 ± 0.11 | 1.04 ± 0.08 | 1.12 ± 0.1 | 1.09 ± 0.07 | 1.14 ± 0.088
25 | UniProt Q7Z2K8 and related entries | 0.958 ± 0.012 | 0.913 ± 0.023 | 1.12 ± 0.049 | 1.1 ± 0.038 | 0.932 ± 0.057 | 0.932 ± 0.031
26 | UniProt Q5VW32 and related entries | 1.013 ± 0.0014 | 0.968 ± 0.028 | 0.984 ± 0.017 | 0.98 ± 0.041 | 1.03 ± 0.052 | 0.985 ± 0.046
27 | UniProt Q7L4P6 and related entries | 1.21 ± 0.13 | 1.37 ± 0.095 | 1.2 ± 0.15 | 1.14 ± 0.16 | 1.03 ± 0.043 | 1.23 ± 0.19
28 | UniProt Q6IQ49 and related entries | 0.971 ± 0.025 | 1.01 ± 0.051 | 0.986 ± 0.025 | 0.981 ± 0.022 | 0.967 ± 0.043 | 0.988 ± 0.052
29 | UniProt Q7Z3U7 and related entries | 1.01 ± 0.094 | 1.02 ± 0.053 | 0.99 ± 0.038 | 0.923 ± 0.046 | 0.937 ± 0.039 | 0.947 ± 0.033
30 | CEP135 (UniProt Q66GS9) | 0.964 ± 0.047 | 0.967 ± 0.048 | 0.985 ± 0.016 | 0.929 ± 0.048 | 0.922 ± 0.035 | 0.894 ± 0.032
31 | GRAMD4 (UniProt Q6IC98) | 1 ± 0.03 | 1.01 ± 0.032 | 1.01 ± 0.016 | 1.03 ± 0.051 | 1.02 ± 0.013 | 1.02 ± 0.034
32 | UniProt Q6UWP7 and related entries | 0.949 ± 0.042 | 0.949 ± 0.032 | 0.977 ± 0.029 | 0.956 ± 0.028 | 0.985 ± 0.016 | 0.949 ± 0.018
33 | UniProt Q75QN2 and related entries | 0.962 ± 0.043 | 0.935 ± 0.087 | 0.982 ± 0.08 | 0.985 ± 0.064 | 0.943 ± 0.083 | 0.937 ± 0.068
34 | UniProt Q6UXN9 and related entries | 0.986 ± 0.051 | 0.916 ± 0.035 | 1.03 ± 0.083 | 1.06 ± 0.11 | 1.139 ± 0.009 | 1.08 ± 0.11

Part of the list above, in CSV form.
Row,Target,NP40-soluble protein abundance (concentration: 1mM),NP40-soluble protein abundance (concentration: 2mM),NP40-soluble protein abundance (concentration: 4mM),NP40-soluble protein abundance (concentration: 6mM),NP40-soluble protein abundance (concentration: 8mM),NP40-soluble protein abundance (concentration: 10mM)
3,UniProt Q6RI45 and related entries,0.999 ± 0.016,0.9969 ± 0.0018,0.986 ± 0.016,0.9818 ± 0.0045,1 ± 0.043,1 ± 0.022
4,UniProt Q6P2C8 and related entries,0.979 ± 0.028,0.943 ± 0.013,1 ± 0.094,1.05 ± 0.052,1.04 ± 0.067,1.07 ± 0.088
